Source: the supplement of paper PMC12889115
This is one part of the list. Values are raw readings; no control value is given beside them.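 First-pass screen: polymyxin B was added at a level that permeabilizes the Salmonella outer membrane while sparing the inner membrane. DMSO wells, with and without polymyxin B, defined maximum growth. Because plates differed from one another, each plate's data were ranked separately and the compounds with the lowest OD600 were carried forward as hits.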

System: Salmonella enterica serovar Typhimurium SL1344
Assay: bacterial growth OD600 after 18 h with compound and polymyxin B; higher = more bacterial growth (less inhibition)
Details: 50 µM, Mueller-Hinton broth

Cc1ccc(CN2CCN(Cc3ccccc3F)CC2CCO)o1 (stereo unspecified)
bacterial growth OD600 (polymyxin B 1 µg/mL): 0.916

CCc1nc2cc(F)ccc2n1C1CCN(C(=O)Cc2c(C)nn(-c3ccccc3)c2C)CC1
bacterial growth OD600 (polymyxin B 0.75 µg/mL): 0.818

COc1ccc(CN(CC2CCN(C3CCCC3)CC2)CC2CCCO2)c(OC)c1 (stereo unspecified)
bacterial growth OD600 (polymyxin B 1 µg/mL): 0.868

CCC1C(=O)NCCN1Cc1ccc2c(c1)CN(Cc1ccc(C(=O)OC)cc1)CCO2 (stereo unspecified)
bacterial growth OD600 (polymyxin B 0.75 µg/mL): 0.94

Cc1ccccc1N1CCN(c2ncccc2CNC(=O)c2cscn2)CC1
bacterial growth OD600 (polymyxin B 1 µg/mL): 0.387

COCCN1CCN(C(=O)c2cc(Cn3nc(C)cc3C)[nH]n2)CC1
bacterial growth OD600 (polymyxin B 1 µg/mL): 1.05

COc1cc(CN2CCSCC2)ccc1OCC(O)CN(C)C(C)C (stereo unspecified)
bacterial growth OD600 (polymyxin B 0.75 µg/mL): 0.823

Cc1cc(=O)c(C(=O)N(CC2CCN(Cc3ccccc3F)CC2)CC2CCCO2)c[nH]1 (stereo unspecified)
bacterial growth OD600 (polymyxin B 1 µg/mL): 1.17

CCOC(=O)C1(Cc2ccc(F)cc2)CCCN(C(=O)c2cccc(C)c2)C1 (stereo unspecified)
bacterial growth OD600 (polymyxin B 1 µg/mL): 0.015

CCC1CN(CCC(=O)N(C)Cc2ccc(OC)c3ncccc23)Cc2cc(OC)ccc2O1 (stereo unspecified)
bacterial growth OD600 (polymyxin B 0.75 µg/mL): 0.782

Fc1ccc(CN2CCOc3ccc(CN4CCC(Oc5cccnc5)CC4)cc3C2)cc1
bacterial growth OD600 (polymyxin B 0.75 µg/mL): 0.788

O=C(NCC1CCCN(Cc2ccccn2)C1)C1(c2ccc(Cl)cc2)CC1 (stereo unspecified)
bacterial growth OD600 (polymyxin B 1 µg/mL): 0.676

CCC1CN(Cc2cn(C)nc2C)Cc2cc(OC)ccc2O1 (stereo unspecified)
bacterial growth OD600 (polymyxin B 0.75 µg/mL): 0.818

Cc1cc(-c2nn(-c3ccccc3F)cc2CN(C)Cc2ccon2)c(C)s1
bacterial growth OD600 (polymyxin B 1 µg/mL): 0.008

Cc1ncc2c(c1CNC(=O)/C=C/c1ccccc1)CCN(C(=O)CCc1c[nH]c3ccccc13)C2
bacterial growth OD600 (polymyxin B 0.75 µg/mL): 0.945

Cc1cnc(-n2ncc(C(=O)NC3CCCN(Cc4ccccc4)C3)c2C2CC2)nc1-c1cccs1 (stereo unspecified)
bacterial growth OD600 (polymyxin B 0.75 µg/mL): 0.086

O=C(Cc1ccc2c(c1)OCO2)NC1CCCc2c1cnn2-c1ccc(F)cc1F (stereo unspecified)
bacterial growth OD600 (polymyxin B 1 µg/mL): 0.78

COCc1noc(-c2ccc(N(C)CCC3CCOCC3)nc2)n1
bacterial growth OD600 (polymyxin B 0.75 µg/mL): 0.837

CC(C)N(Cc1nccn1C)c1ccc(-c2nc(C3CC3)no2)cn1
bacterial growth OD600 (polymyxin B 0.75 µg/mL): 0.813

O=C(Nc1ccnn1C1CCN(C(=O)Cc2c(F)cc(F)cc2F)CC1)C1CCOC1 (stereo unspecified)
bacterial growth OD600 (polymyxin B 0.75 µg/mL): 0.763

CCC(=O)N[C@@H]1c2ccccc2C2(CCN(C(=O)c3cnsn3)CC2)[C@H]1OCc1cccnc1
bacterial growth OD600 (polymyxin B 0.75 µg/mL): 0.808

COCc1ccc(C(=O)Nc2ccc(-c3nc(CNC(=O)CSc4ccccc4)c(C)o3)cc2)o1
bacterial growth OD600 (polymyxin B 0.75 µg/mL): 0.1

O=C(NC1(c2ccccc2)CC1)C1CCCN(C2CCN(C(=O)C3CC3)CC2)C1 (stereo unspecified)
bacterial growth OD600 (polymyxin B 1 µg/mL): 0.842

COc1ccccc1CCC(=O)N1CCc2onc(-c3ccc(Cl)cc3)c2C1
bacterial growth OD600 (polymyxin B 0.75 µg/mL): 0

Cc1ncc2c(c1CNC(=O)c1ccccc1F)CCN(C(=O)COc1ccccc1Cl)C2
bacterial growth OD600 (polymyxin B 0.75 µg/mL): 0.729

CCOC(=O)C1(Cc2ccccc2Cl)CCN(Cc2nc3ccccc3[nH]2)CC1
bacterial growth OD600 (polymyxin B 1 µg/mL): 0.955

CC(C)Cc1cc(C(=O)N2CCOc3ccc(CN4CCc5sccc5C4)cc3C2)n(C)n1
bacterial growth OD600 (polymyxin B 0.75 µg/mL): 0.743

OCC1CCCCN1Cc1nc(Cc2ccccc2Cl)no1 (stereo unspecified)
bacterial growth OD600 (polymyxin B 1 µg/mL): 0.832

COc1ccc(-c2cnnc(N(C)CCC3CCCCO3)n2)cc1 (stereo unspecified)
bacterial growth OD600 (polymyxin B 1 µg/mL): 0.897

CCCc1cc(CN(C)C(=O)CC2(c3cccc(C(F)(F)F)c3)CC(=O)N(C3CC3)C2=O)n[nH]1 (stereo unspecified)
bacterial growth OD600 (polymyxin B 0.75 µg/mL): 0.058

CCN1CC(CNC(=O)c2cc(NS(=O)(=O)CC)cc3nc(-c4ccccc4)n(C)c23)CC1=O (stereo unspecified)
bacterial growth OD600 (polymyxin B 0.75 µg/mL): 0.863
